According to PMC7934584:
No constants are given. Whether binding was seen depends on the method and setting. Binding seen in cells or lysates may run through a third protein. Here binding means that the protein was enriched with, or labelled near, the bait; the list need not be complete.

Amino acid sequences for entries named in this document (tags omitted).
UniProt P42568: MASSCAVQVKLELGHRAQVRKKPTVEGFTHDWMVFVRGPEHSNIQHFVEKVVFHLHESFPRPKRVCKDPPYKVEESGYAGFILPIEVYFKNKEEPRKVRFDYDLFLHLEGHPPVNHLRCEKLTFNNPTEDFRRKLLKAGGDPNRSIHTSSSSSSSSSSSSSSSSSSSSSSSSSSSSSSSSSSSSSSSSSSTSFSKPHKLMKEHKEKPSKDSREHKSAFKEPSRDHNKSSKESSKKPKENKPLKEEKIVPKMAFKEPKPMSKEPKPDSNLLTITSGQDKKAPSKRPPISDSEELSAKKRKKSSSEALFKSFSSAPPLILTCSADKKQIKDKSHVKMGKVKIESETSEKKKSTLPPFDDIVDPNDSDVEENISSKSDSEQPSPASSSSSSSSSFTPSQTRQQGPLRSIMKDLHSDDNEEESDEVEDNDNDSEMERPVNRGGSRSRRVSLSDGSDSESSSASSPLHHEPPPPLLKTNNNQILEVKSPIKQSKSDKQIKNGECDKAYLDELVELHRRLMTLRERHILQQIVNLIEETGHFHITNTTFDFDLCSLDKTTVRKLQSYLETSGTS
UniProt O95863: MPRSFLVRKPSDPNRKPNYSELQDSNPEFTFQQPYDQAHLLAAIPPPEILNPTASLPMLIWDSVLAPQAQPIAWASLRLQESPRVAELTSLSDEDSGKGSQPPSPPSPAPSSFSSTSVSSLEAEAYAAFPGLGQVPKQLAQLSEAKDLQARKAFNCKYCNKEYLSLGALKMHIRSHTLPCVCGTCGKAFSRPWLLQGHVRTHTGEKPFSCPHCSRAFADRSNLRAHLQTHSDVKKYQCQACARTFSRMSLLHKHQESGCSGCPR

Target: FLAG-AF9 (human (cDNA from HEK293T cells)) (UniProt P42568)
Experiment: affinity purification with mass spectrometry; FLAG antibody beads incubated with FLAG-AF9 cell lysate (MDA-MB-231) for 4 h; SDS-PAGE, trypsin digestion, LC-MS/MS; compared with FLAG control

binding: binds
Substance: Snail (from UniProt O95863 1-264)
